According to patent US20030229114A1, “Pyrroloquinoline quinone drugs as a neuroprotectant and methods of use thereof” (priority 2002, published 2003):
Values joined by “and” are separate entries in the source; they are usually repeats but may differ in a detail not shown here. Identical values can stand only once.

Assay: Assay of H2O2 produced by the reaction of SIN-1 with SOD or PQQ
Assay type: biochemical
Settings: SIN-1 1 mM with SOD 100 units/ml or PQQ 100 μM; catalase background subtracted
Experimental: The method described by Yakes and Van Houten (1997) was used, exploiting the oxidation of o-diansidine dihydrochloride (o-DD, Sigma D-3252) in the presence of horseradish peroxidase (Sigma P-8250). Briefly, SIN-1 (1 mM) was incubated with SOD (100 units/ml) or PQQ (100 μM) in the absence or presence of catalase (100 units/ml) in EBSS for various times. Then o-DD was added to a final concentration of 250 μM and 2.5 units/ml horseradish peroxidase were added. After 1 hr incubation at 37° C., the absorbance at 470 nm was measured. The concentration of H2O2 in samples was calculated based on a standard curve obtained by the reaction of various concentrations of H2O2 with o-DD and horseradish peroxidase.

Compound | H2O2 concentration four hours after reaction with SIN-1
O=C(O)c1cc(C(=O)O)c2c(n1)C(=O)C(=O)c1cc(C(=O)O)[nH]c1-2 [PQQ, Pyrroloquinoline quinone] | 14.3 ± 4.3 µM and 27 ± 0.8 µM
SOD: bovine superoxide dismutase | 110 ± 12.4 µM and 85.2 ± 0.2 µM
